# Data from PubChem BioAssay AID1259415 (National Center for Advancing Translational Sciences (NCATS), 2018).
# Screen size: about 410,000 compounds; about 18,000 (4.4%) were called active. This list was built around the results that the source calls inconclusive (neither active nor inactive); the mix of calls is not that of the screen. No stated cut-off is given here; in the data, active means activity change below about -60%; inconclusive means no clear call, values can overlap the other calls; inactive means above about -39%.
# Test: qHTS Assay for inhibitors of the human cytomegalovirus (HCMV)
# Conditions: HFF cells, HCMV-luciferase reporter, 72 h; at 57.5 µM; hits give low values
# Summary of the method: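 HFF cells seeded 16 h at 37C, treated with compounds, infected with luciferase-reporter HCMV at MOI 1 PFU/cell; luciferase read at 72 h post infection, normalized to buffer-only and Salinomycin controls.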
# On the % scale 0 is the no-effect control and ±100 the full control effect.
row,SMILES,"activity change, negative = inhibition"
1,CCOc1cc(CNC(=O)CCCn2c(=O)c3cccn3c3cccnc32)cc(OCC)c1OCC,inconclusive: -48%
2,COc1ccc(CCNC(=O)c2cc(Nc3cc(C)cc(C)c3)nc3ccccc23)cc1OC,inconclusive: -48.1%
3,COc1cc(NC(=S)Nc2cccc(Cl)c2Cl)c(OC)cc1Cl,inconclusive: -54.3%
4,Cc1cccc(N2CCN(C(=O)CCC(=O)N3Cc4ccccc4Oc4ncccc43)CC2)c1C,active: -93.7%
5,O=C1/C(=C\c2ccco2)SC(=S)N1C1CCS(=O)(=O)C1 (stereo not given),active: -73.5%
6,COc1ccc(N2CCN(c3c4c(nc5nncn35)CCC4)CC2)cc1,active: -70.4%
7,COc1ccc(C(=O)CSc2nnc(CN3CCCCC3)n2-c2ccc(F)cc2)cc1OC,inconclusive: -58.1%
8,CCN1CCN(C(c2cccs2)C(C)NC(=O)CC(C)C)CC1 (stereo not given),inactive: 25.8%
9,CCOC(=O)/C(C#N)=C/c1c(OCC)n(CC)c2ccccc12,inconclusive: -55.8%
10,Cc1ccc(Nc2cnn(C34CC5CC(CC(CC(=O)O)(C5)C3)C4)c(=O)c2Cl)cc1C,inconclusive: -46.8%
11,O=C(COC(=O)c1sc2cc(Cl)ccc2c1Cl)Nc1ncc(Cl)cc1Cl,inconclusive: -49.2%
12,Cc1ccccc1-n1c(SC(C)C(=O)N2CCN(C)CC2)nc2ccccc2c1=O (stereo not given),inactive: -3.86%
13,CC1(C)COC(/C=C/c2ccc([N+](=O)[O-])cc2)=N1,active: -101%
14,Cc1cc(Br)cc(C)c1NC(=O)c1ccccc1[N+](=O)[O-],inconclusive: -41.6%
15,COc1ccccc1OCC(O)CN1C(=O)NC(C)(C)C1=O (stereo not given),inconclusive: -42.2%
16,COc1ccccc1N(C(=O)c1snc(C(N)=O)c1N)C(C(=O)NC1CCCCC1)c1cccc(OC)c1OC (stereo not given),inconclusive: -42.6%
17,Cc1ccc2c(c1)sc1nc(-c3cc4ccccc4oc3=O)cn12,active: -79.5%
18,COc1cc(CC(=O)O)c([N+](=O)[O-])cc1OC,inconclusive: -43.6%
19,CCCCCNC(=O)CSC1=N/C(=C\c2ccc(Cl)c(Cl)c2)C(=O)N1CC,inconclusive: -49.9%
20,CCN(CC(=O)Nc1ccc(NC(C)=O)cc1)C(=O)/C=C/c1ccc(S(=O)(=O)N2CCCCCC2)cc1,inactive: -2.54%
21,COc1cc(S(=O)(=O)N2CCOCC2)ccc1NC(=O)CN1c2cccc3cccc(c23)S1(=O)=O,inactive: -19.6%
22,Cc1ccc(S(=O)(=O)N2C[C@H]3C(=O)C[C@@H](c4ccccc4)N(S(C)(=O)=O)[C@H]3C[C@H]2c2ccccc2)cc1,active: -94.7%
23,COc1cc([N+](=O)[O-])ccc1NC(=O)Nc1cccnc1,inactive: -6.52%
24,COc1ccc(Br)cc1/C=N/NC(=O)c1cc(OC)c(OC)c(OC)c1,inconclusive: -40.1%
25,Cc1sc2ncnc(Sc3ccccc3C(=O)Nc3ccc(C#N)cc3)c2c1C,inconclusive: -54.4%
26,COc1ccc(-c2nc(-c3ccccn3)ncc2S(C)(=O)=O)cc1,active: -61.1%
27,CC1CN(Cc2c(O)ccc3c(=O)c(-c4ccccc4Cl)coc23)CC(C)O1 (stereo not given),inactive: 8.45%
28,COc1ccc(CNC(=O)c2ccc3c(c2)N(C)C(=O)C2CCCCN32)cc1OC (stereo not given),inactive: -10.5%

# Fetched by structure from the entries so far, 2 records:
row,SMILES,"activity change, negative = inhibition"
14,Cc1cc(Br)cc(C)c1NC(=O)c1ccccc1[N+](=O)[O-],inconclusive: -41.6%
23,COc1cc([N+](=O)[O-])ccc1NC(=O)Nc1cccnc1,inactive: -6.52%

# (continued)

row,SMILES,"activity change, negative = inhibition"
1,O=Cc1s/c(=N\S(=O)(=O)c2ccccc2)n(CCCCl)c1Cl,active: -108%
2,CSc1cccc(NC(=O)C2CCN(c3ncnc4c3nc3n4CCCCC3)CC2)c1,inconclusive: -53%
3,CCC/C=N/NC(=O)c1ccc(F)cc1,inconclusive: -40.2%
4,Fc1ccc(NC(=S)N2CCSC2c2cccs2)cc1 (stereo not given),inconclusive: -57.6%
5,CCOC(=O)C1=C(C)N(c2ccc(OCC)cc2)C(=O)/C1=C\c1ccco1,inconclusive: -50.3%
6,Cc1ccc(-n2nc(C)c3c(C)c(CCC(=O)NCCCOC(C)C)c(C)nc32)cc1,inconclusive: -44.8%
7,N#Cc1cnc(SCC(=O)c2ccccc2)nc1N,inconclusive: -49.5%
8,CCOC(=O)C[C@H]1c2ccccc2S(=O)(=O)N1Cc1cccc(C(F)(F)F)c1,inactive: 5.33%
9,CCOc1ccc(-c2nnc(N3CCOCC3)c3ccccc23)cc1,inconclusive: -44%
10,CC1(C)CC(=O)c2c(Cc3ccccc3)noc2C1,inconclusive: -56.2%
11,O=C1CCC[C@H]2[C@@H](Cc3ccccc3)[C@@H](NS(=O)(=O)c3ccc(Cl)cc3)CC[C@]23CCCN13,active: -92%
12,COc1ccc(OC)c(NC(=S)NN2CCOCC2)c1,active: -102%
13,Cc1cccc(C)c1NC(=O)CNc1ncnc2sc(C)c(C)c12,inconclusive: -41.4%
14,Cc1cccc(N(CC(=O)NCCSCc2ccc(Cl)cc2)S(C)(=O)=O)c1C,inactive: -14.5%
15,O=C(c1ccc(CN2CCOCC2)cc1)N1CCN(c2ccccc2F)CC1,inactive: 16.2%
16,CCN(CC)c1ccc([N+](=O)[O-])c2cccnc12,inconclusive: -48.2%
17,CCn1c(=NC(=O)CS(=O)(=O)c2ccc(F)cc2)sc2cccc(OC)c21,inconclusive: -43%
18,O=S(=O)(c1cccc(Cl)c1Cl)N1CCN(C(=S)NCCCN2CCOCC2)CC1,inconclusive: -44.6%
19,O=C(COC(=O)c1cc(S(=O)(=O)N2CCCC2)ccc1O)Nc1ccccc1Br,inactive: -18.1%
20,COC(=O)CNc1nc(Cl)nc(N2CCC(C)CC2)n1,inconclusive: -42.8%
21,CN(C)/C=N/C(=S)Nc1ccc(Cl)cc1Cl,inactive: -9.39%
22,COc1cc(SC)ccc1C(=O)Nc1c(Cl)cncc1Cl,inconclusive: -49.7%
23,CCn1c(SCC(=O)Nc2ccc(OC)cc2)nc2nc3c(cc2c1=O)COC(C)(C)C3,inconclusive: -52.2%
24,CCC(=O)N1CCc2cc(Br)cc(S(=O)(=O)CCC(=O)Nc3ccc(C)c(C)c3)c21,inconclusive: -52.8%
25,CCOC(=O)C1(Cc2ccc(OC)cc2)CCN(C(=O)CCc2cccnc2)CC1,inactive: -29.5%
26,O=C1CC(N2CCN(C/C=C/c3ccccc3)CC2)C(=O)N1CCc1ccccc1 (stereo not given),inconclusive: -40.7%
27,CCCC(=O)N=C1SC2CS(=O)(=O)CC2N1c1ccc(-c2nc3ccc(C)cc3s2)cc1 (stereo not given),inactive: 51.7%
